Experimental data from paper PMC4823379.
These are yes or no findings as the source states them, for the method shown. In cells and extracts the contact can be indirect. Some results given as binding are weak or reduced against the parent protein; the word gives no strength. For some of these results: Tags and fused reporters may be left off the sequences shown.

The chains behind the UniProt entries cited, without tags or fusion partners. Where a name states a change or a piece, a line headed by the entry shows the natural chain unless it says otherwise.
UniProt Q9EPN1: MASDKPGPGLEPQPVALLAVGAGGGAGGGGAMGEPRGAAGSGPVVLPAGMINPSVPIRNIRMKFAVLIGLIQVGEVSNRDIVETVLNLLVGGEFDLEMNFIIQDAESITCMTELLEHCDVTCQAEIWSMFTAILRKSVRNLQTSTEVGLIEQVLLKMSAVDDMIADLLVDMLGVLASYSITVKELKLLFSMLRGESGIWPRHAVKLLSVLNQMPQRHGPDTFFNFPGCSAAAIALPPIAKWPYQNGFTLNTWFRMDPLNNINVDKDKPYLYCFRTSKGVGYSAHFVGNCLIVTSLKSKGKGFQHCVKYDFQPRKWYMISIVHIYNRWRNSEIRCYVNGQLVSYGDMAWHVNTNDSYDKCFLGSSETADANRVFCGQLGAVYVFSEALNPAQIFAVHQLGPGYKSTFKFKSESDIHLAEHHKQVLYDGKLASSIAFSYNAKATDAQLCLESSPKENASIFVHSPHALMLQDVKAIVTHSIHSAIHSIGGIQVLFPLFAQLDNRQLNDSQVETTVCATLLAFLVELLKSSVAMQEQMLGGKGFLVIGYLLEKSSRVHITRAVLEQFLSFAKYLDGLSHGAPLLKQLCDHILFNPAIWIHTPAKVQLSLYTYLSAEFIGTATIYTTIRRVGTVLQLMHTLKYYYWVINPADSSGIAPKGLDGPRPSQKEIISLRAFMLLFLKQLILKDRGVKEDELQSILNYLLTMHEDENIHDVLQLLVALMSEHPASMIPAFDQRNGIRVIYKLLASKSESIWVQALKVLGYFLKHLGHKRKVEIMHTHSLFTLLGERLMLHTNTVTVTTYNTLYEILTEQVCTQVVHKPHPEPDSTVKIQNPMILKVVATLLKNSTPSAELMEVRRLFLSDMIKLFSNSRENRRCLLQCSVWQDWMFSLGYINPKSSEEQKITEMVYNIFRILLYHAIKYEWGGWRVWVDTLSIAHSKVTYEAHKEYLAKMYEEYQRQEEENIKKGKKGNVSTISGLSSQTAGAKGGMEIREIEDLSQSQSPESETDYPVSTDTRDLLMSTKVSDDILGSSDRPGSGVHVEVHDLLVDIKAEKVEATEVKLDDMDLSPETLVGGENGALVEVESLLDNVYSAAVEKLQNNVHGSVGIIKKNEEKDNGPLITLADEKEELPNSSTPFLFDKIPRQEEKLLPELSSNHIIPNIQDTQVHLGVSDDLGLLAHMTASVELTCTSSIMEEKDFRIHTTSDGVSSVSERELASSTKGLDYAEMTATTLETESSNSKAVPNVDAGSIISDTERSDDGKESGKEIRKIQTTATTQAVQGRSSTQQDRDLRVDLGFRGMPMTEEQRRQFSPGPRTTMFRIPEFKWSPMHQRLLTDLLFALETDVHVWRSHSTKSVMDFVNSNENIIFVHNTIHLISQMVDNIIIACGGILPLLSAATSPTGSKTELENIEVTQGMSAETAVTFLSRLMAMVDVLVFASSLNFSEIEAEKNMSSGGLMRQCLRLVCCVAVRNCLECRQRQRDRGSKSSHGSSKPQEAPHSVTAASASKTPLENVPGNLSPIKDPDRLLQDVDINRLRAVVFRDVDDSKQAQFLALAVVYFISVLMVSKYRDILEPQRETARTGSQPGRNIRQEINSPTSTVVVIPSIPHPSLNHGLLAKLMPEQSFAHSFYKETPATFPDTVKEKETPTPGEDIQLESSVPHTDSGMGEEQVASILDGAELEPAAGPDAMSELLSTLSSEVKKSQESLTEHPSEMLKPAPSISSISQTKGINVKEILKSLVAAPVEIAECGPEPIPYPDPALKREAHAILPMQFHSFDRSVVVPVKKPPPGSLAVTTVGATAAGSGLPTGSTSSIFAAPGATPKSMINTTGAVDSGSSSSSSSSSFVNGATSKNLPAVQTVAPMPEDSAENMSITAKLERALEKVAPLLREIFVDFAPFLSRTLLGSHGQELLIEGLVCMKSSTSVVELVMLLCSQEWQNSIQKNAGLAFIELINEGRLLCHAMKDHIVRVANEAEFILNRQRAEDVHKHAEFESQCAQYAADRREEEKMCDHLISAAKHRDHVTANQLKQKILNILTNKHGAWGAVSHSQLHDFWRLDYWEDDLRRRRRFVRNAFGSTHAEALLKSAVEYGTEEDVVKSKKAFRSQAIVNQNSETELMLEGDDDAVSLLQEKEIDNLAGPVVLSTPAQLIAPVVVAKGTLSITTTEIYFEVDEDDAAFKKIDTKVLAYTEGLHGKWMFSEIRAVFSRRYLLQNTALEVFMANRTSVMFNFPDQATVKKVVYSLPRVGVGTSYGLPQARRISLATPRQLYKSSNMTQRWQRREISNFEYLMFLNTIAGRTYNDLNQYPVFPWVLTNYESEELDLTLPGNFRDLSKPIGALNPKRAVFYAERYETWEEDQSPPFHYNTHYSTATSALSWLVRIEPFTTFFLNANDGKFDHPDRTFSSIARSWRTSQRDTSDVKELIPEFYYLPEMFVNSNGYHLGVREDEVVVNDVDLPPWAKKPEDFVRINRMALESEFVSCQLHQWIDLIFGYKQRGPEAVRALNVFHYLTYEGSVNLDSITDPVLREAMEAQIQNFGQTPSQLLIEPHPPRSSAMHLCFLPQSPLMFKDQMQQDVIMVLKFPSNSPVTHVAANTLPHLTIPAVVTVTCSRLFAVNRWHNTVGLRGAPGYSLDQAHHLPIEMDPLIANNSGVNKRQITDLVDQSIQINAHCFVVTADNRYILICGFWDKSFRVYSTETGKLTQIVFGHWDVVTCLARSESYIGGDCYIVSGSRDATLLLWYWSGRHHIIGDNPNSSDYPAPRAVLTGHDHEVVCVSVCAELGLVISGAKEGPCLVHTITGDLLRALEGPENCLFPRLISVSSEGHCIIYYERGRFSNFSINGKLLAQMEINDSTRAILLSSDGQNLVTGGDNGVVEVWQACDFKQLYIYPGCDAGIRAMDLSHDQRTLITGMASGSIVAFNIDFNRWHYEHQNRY

Key:
[1] = molecular target: T1, synapse-associated protein 102 (SAP102/Dlg3), FLAG-tagged (UniProt P70175); assay: co-IP; immunoprecipitation from HEK293T cells co-expressing Nbea (WT or E2218R) with FLAG-SAP102, PFKM or PSD95; immunoblot; performed as in ref. 15
T1 sequence: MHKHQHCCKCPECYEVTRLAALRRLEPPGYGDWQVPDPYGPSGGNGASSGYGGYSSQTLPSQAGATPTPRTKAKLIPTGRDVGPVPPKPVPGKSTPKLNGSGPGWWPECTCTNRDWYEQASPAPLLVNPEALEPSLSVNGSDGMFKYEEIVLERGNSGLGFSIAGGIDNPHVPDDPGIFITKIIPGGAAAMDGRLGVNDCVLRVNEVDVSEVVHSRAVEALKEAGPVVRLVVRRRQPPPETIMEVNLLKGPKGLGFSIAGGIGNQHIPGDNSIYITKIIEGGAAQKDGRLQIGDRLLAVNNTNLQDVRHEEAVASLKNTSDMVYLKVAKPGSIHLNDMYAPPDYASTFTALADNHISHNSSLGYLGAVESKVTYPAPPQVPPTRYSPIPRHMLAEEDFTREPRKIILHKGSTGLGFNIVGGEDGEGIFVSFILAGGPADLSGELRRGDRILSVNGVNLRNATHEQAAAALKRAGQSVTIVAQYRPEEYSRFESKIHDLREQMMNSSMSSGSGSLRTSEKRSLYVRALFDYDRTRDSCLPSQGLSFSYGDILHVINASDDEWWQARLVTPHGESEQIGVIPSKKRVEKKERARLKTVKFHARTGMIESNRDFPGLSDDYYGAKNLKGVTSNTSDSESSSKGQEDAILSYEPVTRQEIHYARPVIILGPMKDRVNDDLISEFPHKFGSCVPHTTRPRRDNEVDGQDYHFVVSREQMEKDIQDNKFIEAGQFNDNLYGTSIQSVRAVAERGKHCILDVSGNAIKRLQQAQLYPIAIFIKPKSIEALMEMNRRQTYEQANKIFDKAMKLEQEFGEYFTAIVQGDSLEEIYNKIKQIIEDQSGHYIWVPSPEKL

[2] = molecular target: T2, Phospho-fructo kinase muscle (PFKM) (human) (UniProt P08237); assay: as above
T2 sequence: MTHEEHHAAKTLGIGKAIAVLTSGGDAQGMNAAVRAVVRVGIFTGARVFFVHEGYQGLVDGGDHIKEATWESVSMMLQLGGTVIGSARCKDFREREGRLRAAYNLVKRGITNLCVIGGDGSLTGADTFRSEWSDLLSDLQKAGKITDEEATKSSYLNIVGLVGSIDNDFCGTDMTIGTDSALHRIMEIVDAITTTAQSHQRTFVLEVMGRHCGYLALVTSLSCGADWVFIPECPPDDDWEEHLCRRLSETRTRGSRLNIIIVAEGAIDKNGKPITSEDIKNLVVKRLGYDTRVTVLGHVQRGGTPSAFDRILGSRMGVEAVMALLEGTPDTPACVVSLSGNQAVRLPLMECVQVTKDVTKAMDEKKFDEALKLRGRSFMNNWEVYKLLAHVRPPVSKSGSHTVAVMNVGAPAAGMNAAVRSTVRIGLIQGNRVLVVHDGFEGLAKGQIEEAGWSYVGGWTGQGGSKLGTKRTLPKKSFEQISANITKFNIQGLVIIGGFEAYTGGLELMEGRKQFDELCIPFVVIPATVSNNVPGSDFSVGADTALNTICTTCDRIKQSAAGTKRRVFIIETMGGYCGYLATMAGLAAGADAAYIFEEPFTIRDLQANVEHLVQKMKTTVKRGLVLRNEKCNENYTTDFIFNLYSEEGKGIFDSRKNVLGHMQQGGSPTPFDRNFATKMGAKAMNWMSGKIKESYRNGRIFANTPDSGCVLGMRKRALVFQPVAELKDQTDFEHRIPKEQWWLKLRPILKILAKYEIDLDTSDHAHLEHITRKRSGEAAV

Neurobeachin (Nbea), wild-type, full-length (from UniProt Q9EPN1 1-2936)
binding [1]: binds | binding [2]: binds

E2218R Nbea (full-length neurobeachin with the point mutation E2218R in the pleckstrin homology domain) (from UniProt Q9EPN1 1-2936)
binding [1]: no binding | binding [2]: binds
